2 substances from patent US20110135632A1 can be followed below.

The chains behind the UniProt entries cited, without tags or fusion partners. Where a name states a change or a piece, a line headed by the entry shows the natural chain unless it says otherwise.
UniProt P78347: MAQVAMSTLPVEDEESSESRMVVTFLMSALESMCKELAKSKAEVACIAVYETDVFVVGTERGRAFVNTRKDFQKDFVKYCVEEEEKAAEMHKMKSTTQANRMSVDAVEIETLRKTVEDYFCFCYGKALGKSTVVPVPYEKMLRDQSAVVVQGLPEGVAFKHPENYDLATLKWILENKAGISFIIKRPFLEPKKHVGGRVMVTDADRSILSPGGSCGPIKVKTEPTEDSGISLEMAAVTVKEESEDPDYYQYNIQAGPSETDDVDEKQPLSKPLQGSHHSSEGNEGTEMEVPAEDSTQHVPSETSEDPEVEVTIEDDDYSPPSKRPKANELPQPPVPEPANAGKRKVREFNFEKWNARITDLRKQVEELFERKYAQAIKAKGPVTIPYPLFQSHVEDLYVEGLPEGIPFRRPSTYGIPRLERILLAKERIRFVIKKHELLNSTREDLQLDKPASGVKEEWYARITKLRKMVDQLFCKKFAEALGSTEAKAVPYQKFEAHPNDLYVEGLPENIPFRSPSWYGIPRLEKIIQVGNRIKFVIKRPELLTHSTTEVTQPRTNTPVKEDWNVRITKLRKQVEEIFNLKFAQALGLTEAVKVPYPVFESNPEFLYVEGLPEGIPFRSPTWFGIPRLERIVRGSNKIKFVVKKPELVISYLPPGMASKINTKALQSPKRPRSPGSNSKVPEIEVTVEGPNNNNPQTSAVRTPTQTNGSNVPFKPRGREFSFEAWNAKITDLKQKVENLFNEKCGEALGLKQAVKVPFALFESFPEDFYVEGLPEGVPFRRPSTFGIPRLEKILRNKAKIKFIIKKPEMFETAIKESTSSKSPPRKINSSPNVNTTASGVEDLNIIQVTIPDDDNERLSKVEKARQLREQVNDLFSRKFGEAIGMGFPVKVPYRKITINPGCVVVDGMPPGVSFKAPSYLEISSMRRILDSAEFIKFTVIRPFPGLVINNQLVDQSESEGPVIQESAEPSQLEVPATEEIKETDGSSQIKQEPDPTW
UniProt P23769: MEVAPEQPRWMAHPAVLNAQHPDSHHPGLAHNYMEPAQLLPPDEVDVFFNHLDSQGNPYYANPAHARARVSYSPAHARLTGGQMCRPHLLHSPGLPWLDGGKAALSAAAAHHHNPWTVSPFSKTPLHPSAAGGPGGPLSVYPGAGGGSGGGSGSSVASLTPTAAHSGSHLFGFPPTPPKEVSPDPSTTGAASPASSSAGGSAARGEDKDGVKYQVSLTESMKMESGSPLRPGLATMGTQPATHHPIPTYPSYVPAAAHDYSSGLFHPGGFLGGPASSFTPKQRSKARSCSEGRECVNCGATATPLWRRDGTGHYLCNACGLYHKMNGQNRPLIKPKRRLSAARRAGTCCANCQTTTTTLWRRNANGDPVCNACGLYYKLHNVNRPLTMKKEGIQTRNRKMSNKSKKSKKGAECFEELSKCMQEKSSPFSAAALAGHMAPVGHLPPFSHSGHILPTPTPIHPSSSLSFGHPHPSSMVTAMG

No constants are given. Whether binding was seen depends on the method and setting. In cells and extracts the contact can be indirect. Some entries that bind do so weakly or less than the wild type.

Assay [1] has as its target human TFII-I (human) (UniProt P78347). Description: co-immunoprecipitation, immunoblot (FIG. 11A). For orientation: Immunoblotting shows a protein as a band on a membrane.
The target is the same in assay [2]. In words: co-immunoprecipitation in cells overexpressing HA-GATA2, immunoblot (FIG. 11A).
Assay [3] shares this target. In words: co-immunoprecipitation, immunoblot (FIG. 11B).
Assay [4] shares this target. Description: co-immunoprecipitation with anti-TFII-I antibody in p190RhoGAP knockdown HMVE cells (FIG. 11B).

For the substance HA-GATA2 (from UniProt P23769 1-480), the binding result with human TFII-I (human) [1] and with human TFII-I (human) [2] was “binds” throughout.
With human GATA2 (from UniProt P23769 1-480), the binding entry with human TFII-I (human) [3] and with human TFII-I (human) [4] was “binds” throughout.
